No constants are given. Whether binding was seen depends on the method and setting. Some binding calls cover weakened binding; strength is not graded here.
How the values were obtained:
[1] = molecular target: LRP6.E1-E4 protein (Homo sapiens (Human)) (UniProt O75581); assay: biolayer interferometry, sequential binding
[2] = molecular target: LRP6.E1-E4 protein (Homo sapiens (Human)) (UniProt O75581); assay: biolayer interferometry, immobilized biotinylated LRP6.E1-E4
[3] = molecular target: LRP6.E1-E4 protein (Homo sapiens (Human)) (UniProt O75581); assay: biolayer interferometry, immobilized LRP6 E1-E4; two antibodies added one after the other, in both orders; concentrations not given
[4] = molecular target: LRP6.E1-E4 protein (Homo sapiens (Human)) (UniProt O75581); assay: FACS competition, soluble LRP6 E1-E4 protein as competitor

Amino acid sequences for entries named in this document (tags omitted). A change or cut given only in a name is not applied to a line headed by its entry.
UniProt O75581: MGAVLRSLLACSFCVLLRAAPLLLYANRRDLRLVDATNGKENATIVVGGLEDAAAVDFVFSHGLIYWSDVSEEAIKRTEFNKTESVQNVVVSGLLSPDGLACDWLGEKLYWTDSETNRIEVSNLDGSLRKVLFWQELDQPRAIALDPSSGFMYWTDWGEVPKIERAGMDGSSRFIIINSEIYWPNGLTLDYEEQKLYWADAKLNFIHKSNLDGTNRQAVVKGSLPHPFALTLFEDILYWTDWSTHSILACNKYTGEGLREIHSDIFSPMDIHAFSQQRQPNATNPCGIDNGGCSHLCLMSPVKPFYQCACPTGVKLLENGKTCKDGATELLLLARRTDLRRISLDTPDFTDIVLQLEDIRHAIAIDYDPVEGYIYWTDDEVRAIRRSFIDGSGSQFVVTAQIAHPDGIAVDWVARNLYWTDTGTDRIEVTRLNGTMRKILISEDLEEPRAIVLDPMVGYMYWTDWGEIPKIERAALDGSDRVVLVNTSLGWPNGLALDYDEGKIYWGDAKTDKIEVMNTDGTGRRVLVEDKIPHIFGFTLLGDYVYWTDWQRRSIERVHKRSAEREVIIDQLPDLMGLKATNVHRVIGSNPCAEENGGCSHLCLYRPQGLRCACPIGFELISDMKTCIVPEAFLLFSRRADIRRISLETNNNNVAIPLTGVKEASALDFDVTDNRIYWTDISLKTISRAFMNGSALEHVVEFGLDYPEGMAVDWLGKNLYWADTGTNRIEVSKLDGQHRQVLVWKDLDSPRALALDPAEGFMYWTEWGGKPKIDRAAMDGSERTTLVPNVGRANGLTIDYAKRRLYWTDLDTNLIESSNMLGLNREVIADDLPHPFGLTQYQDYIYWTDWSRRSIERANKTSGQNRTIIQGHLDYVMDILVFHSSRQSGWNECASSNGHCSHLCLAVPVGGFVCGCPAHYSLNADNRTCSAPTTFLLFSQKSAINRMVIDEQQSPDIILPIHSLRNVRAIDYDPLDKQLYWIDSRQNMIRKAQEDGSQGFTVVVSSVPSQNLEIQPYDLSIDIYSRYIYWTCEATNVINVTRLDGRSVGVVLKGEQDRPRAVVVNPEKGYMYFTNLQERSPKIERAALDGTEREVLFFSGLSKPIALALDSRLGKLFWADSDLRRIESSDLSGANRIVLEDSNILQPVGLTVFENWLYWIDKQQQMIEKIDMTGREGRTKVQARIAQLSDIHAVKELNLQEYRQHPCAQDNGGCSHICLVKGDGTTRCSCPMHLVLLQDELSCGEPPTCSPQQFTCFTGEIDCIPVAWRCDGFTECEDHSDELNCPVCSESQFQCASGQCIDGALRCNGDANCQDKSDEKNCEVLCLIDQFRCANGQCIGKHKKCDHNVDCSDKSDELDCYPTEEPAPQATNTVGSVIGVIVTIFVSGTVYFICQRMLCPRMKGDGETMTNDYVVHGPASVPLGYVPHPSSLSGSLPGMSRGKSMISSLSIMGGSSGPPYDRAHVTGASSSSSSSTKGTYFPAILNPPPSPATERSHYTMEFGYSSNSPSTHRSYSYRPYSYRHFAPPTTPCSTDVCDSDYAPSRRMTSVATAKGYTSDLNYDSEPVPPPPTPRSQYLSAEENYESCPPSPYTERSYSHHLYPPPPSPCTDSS

binding [1]: binds
binding [2]: binds
binding [3]: binds
binding [4]: binds
B1: YW211.31.57 antibody (antibody, human IgG1, kappa, V domains shown)
VH: EVQLVESGGGLVQPGGSLRLSCAASGFTFTSYYISWVRQAPGKGLEWVAEISPYSGSTYYADSVKGRFTISADTSKNTAYLQMNSLRAEDTAVYYCALRARPPIRLYPRGSVMDYWGQGTLVTVSS
VL: DIQMTQSPSSLSASVGDRVTITCRASQDVSTAVAWYQQKPGKAPKLLIYSASFLYSGVPSRFSGSGSGTDFTLTISSLQPEDFATYYCQQSYTLPTTFGQGTKVEIKR

Reference: US20110256127A1
